# Results taken from US9024043B2, “Pimarane diterpenes from Anisochilus verticillatus” (Council of Scientific & Industrial Research, priority 2011, dated 2015).
# Some of these results come from one statement about several compounds together.
# Test system: Mycobacterium tuberculosis H37Ra
# Assay: Anti-mycobacterial activity (XTT-menadione assay)
# Format: cell-based
# Details: in vitro
# Procedure: All the isolated compounds and whole acetone extract were tested for their in vitro effect against Mycobacterium tuberculosis H37Ra culture maintained in-house.
# M. tuberculosis, H37Ra (ATCC 25177) cells were grown to logarithmic phase (O.D.595˜1.0) in a defined medium (M. pheli medium) under aerobic conditions in a shaker incubator (Thermo Electron Corporation Model 481) maintained at 150 rpm and 37° C. After growth, the culture was sonicated for 2 min using a water bath sonicator. Sonicated cells were used for inoculation in micro plate wells. 250 μl of the culture containing ˜10 5 cells/ml was added to each well of 96 well plates. 2.5 μl of the test samples dissolved in DMSO was added to the wells to attain a final concentration of 100 ug/ml respectively for the preliminary screening. Dose response curve of the active compounds was carried out by making serial dilutions of the test samples. Then, the plate was incubated in a CO2 incubator at 37° C. The plate was taken out on the 8th day of incubation to measure the viable cell counts. The optical density of the culture was measured before addition of XTT at 470 nm which was served as a blank for the MIC calculations. 200 μM XTT was added and incubated for 20 min at 37° C. after shaking for 1 min. After 20 min of incubation, 60 μM menadione was added and incubated at 37° C. for 40 min after mixing of 1 min. Finally, the optical density of the suspension was measured at 470 nm by using microplate reader.
SMILES,antimycobacterial activity against M. tuberculosis (in words),antimycobacterial activity against M. tuberculosis (in words) (listed as compound 1),antimycobacterial activity against M. tuberculosis (in words) (listed as compound 4),antimycobacterial activity against M. tuberculosis (in words) (listed as compound 2),antimycobacterial activity against M. tuberculosis (in words) (listed as compound 3)
"C=C[C@@]1(C)CC[C@@]2(O)[C@]3(CC[C@@]4(OO3)C(C)(C)CCC[C@]24C)C1 [Compound 1, pimarane-5,8-peroxide]",showed inhibition,good anti-microbial activity,,,
"C=CCc1ccc(O)c(O)c1 [Compound 4, Hydroxychavicol]",showed inhibition,,good anti-microbial activity,,
"C=C[C@@]1(C)CC[C@H]2[C@@](O)(C[C@@H](O)[C@@]3(O)C(C)(C)CCC[C@]23C)C1 [Compound 2, pimarane-triol]",showed inhibition,,,good anti-microbial activity,
"C=C[C@@]1(C)CC[C@@]2(O)[C@@](O)(C[C@@H](O)[C@@]3(O)C(C)(C)CCC[C@]23C)C1 [Compound 3, pimarane-tetrol]",showed inhibition,,,,good anti-microbial activity
